Entries after “also recorded” stand apart in the source; their conditions may differ. At least one compound was matched to its structure with a doubt left. Some results were stated once for a whole list of compounds, not compound by compound.
What was measured:
[1] = dissolving in oils, paraffins, stearates, Vaseline or glycerin with heat; format: physicochemical; details: 2 g substance in 100 ml natural and mineral oils, stearate mixtures or Vaseline, 120° C.
Protocol: The solubility of phytosterol/betasitosterol mixtures and betasitosterol metabolites can be accelerated and improved with respect to yield if the effective ingredients are treated in oil, paraffins, stearates, or Vaseline with the application of heat at temperatures of around 70° C. to 160° C., advantageously at 120° C. to 140° C., advantageously over a period of 30 minutes to 3 hours.
If betasitosterol or sodium desoxycholate is heated in diverse natural and mineral oils, paraffins, commercially-available hypoallergenic stearate mixtures, or Vaseline (2 g substance in 100 ml) to 120° C., both substances dissolve fully within 90 minutes. Upon further heating to 150° C. (at 140° C., betasitosterol becomes liquid), betasitosterol dissolves up to around 15% in stearate mixtures, paraffins, and plant and mineral oils. […] In like manner, betasitosterol and sodium desoxycholate can be introduced into glycerin.

[2] = cited from earlier work

Compound | time to dissolve fully [1] [min] | toxicity / side effects [2]
CC[C@H](CC[C@@H](C)[C@H]1CC[C@H]2[C@@H]3CC=C4C[C@@H](O)CC[C@]4(C)[C@H]3CC[C@]12C)C(C)C [betasitosterol] | ≤ 90 | practically nontoxic; also recorded: extremely low in side effects
sodium desoxycholate | ≤ 90 | 

Reference: US6407085B1, “Medicament containing betasitosterol and/or phytosterol/betasitosterol mixtures” (priority 1997, dated 2002)
